The results in this text go back to the supplement of paper PMC10849652.

Amino acid sequences for entries named in this document (tags omitted). A change or cut given only in a name is not applied to a line headed by its entry.
UniProt Q71F23: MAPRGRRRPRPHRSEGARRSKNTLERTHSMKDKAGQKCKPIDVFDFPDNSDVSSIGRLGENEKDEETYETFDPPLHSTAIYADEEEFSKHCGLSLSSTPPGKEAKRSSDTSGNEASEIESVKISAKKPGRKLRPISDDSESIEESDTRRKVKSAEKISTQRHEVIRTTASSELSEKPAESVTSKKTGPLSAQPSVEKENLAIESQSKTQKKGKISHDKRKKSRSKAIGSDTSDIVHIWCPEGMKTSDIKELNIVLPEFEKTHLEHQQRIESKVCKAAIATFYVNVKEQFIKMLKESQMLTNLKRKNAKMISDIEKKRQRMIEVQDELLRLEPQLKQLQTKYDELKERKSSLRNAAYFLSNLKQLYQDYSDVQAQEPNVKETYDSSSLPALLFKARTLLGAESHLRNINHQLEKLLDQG
UniProt O15078: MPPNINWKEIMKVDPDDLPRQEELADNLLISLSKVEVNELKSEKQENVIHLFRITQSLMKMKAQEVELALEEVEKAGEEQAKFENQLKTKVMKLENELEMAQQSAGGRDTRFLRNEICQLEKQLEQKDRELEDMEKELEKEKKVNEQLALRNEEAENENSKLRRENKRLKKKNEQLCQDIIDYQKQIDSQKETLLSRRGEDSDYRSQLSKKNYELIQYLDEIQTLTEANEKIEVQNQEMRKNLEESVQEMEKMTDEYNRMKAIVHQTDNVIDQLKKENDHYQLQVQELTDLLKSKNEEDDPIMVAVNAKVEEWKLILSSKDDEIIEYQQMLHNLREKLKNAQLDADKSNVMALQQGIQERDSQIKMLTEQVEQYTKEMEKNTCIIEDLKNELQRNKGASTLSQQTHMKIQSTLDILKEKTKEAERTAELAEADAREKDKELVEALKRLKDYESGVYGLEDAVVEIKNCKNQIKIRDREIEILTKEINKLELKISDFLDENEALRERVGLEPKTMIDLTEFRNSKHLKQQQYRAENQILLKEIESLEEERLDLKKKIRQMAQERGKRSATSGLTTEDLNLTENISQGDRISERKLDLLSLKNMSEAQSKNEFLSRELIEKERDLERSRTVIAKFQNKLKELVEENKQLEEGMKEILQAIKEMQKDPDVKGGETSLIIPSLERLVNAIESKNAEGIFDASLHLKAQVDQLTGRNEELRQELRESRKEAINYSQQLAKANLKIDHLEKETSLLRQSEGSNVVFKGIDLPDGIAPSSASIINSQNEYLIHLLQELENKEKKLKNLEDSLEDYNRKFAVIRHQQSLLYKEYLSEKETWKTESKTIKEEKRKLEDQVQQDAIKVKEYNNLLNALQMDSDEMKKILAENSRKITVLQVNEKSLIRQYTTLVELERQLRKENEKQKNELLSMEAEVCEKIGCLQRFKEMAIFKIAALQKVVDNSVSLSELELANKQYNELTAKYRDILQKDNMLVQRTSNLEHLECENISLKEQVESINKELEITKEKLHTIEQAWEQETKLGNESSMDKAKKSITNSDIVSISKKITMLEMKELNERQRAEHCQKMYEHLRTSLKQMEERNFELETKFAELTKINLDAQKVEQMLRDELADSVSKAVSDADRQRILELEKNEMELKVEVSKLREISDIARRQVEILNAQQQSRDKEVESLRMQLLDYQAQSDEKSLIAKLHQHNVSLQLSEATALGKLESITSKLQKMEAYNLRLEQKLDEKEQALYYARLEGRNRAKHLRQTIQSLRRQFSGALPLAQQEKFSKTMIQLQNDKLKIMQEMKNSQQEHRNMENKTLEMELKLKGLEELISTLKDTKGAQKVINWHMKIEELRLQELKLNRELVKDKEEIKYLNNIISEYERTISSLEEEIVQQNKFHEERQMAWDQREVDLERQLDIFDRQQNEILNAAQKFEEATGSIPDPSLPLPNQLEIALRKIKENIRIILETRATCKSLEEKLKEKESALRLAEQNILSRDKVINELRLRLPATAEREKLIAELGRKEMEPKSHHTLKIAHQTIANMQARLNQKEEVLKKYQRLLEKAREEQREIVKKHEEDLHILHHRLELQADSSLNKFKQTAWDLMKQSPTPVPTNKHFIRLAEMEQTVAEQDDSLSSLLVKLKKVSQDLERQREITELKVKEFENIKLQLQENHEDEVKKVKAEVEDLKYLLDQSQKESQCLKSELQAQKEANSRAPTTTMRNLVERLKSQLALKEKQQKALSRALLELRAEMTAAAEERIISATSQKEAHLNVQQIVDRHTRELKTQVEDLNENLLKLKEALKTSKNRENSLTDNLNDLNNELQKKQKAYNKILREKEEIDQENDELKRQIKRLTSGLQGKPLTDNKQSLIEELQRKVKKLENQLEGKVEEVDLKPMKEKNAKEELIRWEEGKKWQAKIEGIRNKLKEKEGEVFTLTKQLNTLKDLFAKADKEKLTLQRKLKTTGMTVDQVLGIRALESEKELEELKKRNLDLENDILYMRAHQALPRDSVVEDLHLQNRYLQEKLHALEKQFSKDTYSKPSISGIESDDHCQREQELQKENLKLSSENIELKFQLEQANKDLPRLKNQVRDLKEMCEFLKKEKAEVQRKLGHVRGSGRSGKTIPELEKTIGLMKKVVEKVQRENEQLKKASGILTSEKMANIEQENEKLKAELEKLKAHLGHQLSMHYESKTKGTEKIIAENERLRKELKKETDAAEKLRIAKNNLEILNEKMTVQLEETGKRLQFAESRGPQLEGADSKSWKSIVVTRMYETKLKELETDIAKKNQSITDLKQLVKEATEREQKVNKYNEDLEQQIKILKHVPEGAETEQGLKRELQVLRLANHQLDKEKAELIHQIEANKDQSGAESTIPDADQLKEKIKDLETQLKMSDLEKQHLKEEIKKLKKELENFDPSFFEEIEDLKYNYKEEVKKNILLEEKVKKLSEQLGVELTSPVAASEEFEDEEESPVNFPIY
UniProt P49336: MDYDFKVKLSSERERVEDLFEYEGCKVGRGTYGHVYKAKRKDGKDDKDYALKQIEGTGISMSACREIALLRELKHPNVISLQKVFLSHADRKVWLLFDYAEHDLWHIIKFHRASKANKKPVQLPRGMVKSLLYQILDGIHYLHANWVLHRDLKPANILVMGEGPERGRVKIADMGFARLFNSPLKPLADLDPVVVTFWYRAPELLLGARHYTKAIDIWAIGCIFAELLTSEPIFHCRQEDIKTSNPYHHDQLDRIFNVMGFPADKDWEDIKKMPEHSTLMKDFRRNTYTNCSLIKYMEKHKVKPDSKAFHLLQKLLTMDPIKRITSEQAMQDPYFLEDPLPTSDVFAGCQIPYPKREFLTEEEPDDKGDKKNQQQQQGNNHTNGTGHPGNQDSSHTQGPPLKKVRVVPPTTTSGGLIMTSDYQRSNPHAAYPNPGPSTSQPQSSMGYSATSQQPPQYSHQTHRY
UniProt Q9BXL8: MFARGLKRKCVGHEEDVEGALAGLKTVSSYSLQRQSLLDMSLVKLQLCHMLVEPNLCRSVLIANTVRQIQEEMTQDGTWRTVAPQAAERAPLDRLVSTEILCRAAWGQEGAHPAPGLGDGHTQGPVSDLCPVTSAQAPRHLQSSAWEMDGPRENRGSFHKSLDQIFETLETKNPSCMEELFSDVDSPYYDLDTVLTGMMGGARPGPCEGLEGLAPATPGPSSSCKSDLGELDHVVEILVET
UniProt P57076: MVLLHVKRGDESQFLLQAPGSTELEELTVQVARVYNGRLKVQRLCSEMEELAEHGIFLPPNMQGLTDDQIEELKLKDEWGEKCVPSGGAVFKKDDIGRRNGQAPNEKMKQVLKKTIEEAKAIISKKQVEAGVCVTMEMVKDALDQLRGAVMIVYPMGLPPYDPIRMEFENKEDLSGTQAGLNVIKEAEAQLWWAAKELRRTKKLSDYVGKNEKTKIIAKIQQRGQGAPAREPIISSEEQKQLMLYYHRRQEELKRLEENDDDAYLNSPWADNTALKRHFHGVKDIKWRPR
UniProt P30305: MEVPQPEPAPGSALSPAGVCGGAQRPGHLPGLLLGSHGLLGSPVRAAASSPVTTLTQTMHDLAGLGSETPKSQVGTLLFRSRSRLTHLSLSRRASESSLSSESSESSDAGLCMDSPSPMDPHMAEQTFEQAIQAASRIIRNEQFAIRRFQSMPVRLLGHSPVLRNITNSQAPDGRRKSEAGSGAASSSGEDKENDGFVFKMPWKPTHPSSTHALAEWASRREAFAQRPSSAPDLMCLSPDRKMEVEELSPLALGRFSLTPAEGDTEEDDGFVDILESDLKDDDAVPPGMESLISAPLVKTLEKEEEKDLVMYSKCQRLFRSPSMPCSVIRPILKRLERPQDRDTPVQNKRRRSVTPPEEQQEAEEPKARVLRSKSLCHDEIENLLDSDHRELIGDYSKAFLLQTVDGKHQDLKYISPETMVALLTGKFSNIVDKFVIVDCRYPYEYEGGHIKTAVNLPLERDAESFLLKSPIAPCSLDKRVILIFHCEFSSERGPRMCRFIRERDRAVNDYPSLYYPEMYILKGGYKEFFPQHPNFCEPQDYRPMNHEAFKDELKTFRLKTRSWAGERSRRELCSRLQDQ
UniProt Q00537: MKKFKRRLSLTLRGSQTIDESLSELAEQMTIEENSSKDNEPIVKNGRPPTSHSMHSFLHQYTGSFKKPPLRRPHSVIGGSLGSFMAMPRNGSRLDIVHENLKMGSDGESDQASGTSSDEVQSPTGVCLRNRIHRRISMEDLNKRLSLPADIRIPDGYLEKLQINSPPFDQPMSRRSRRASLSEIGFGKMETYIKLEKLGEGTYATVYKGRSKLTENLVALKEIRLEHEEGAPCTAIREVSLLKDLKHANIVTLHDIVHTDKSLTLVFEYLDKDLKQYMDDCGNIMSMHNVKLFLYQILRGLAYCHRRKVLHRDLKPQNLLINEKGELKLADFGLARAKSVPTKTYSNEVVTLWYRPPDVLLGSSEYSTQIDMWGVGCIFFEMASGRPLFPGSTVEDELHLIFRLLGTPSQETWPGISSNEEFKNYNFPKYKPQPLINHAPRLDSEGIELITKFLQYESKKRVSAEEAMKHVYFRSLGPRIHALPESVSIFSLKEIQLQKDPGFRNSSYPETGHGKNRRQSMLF
UniProt Q8TCZ2: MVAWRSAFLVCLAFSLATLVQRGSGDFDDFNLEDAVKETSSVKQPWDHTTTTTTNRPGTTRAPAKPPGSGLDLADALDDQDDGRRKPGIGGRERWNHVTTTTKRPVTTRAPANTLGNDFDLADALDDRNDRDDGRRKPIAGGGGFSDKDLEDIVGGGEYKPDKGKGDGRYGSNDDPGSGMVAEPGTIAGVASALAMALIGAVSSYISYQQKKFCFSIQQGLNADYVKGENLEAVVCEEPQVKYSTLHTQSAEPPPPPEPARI
UniProt Q9NXV6: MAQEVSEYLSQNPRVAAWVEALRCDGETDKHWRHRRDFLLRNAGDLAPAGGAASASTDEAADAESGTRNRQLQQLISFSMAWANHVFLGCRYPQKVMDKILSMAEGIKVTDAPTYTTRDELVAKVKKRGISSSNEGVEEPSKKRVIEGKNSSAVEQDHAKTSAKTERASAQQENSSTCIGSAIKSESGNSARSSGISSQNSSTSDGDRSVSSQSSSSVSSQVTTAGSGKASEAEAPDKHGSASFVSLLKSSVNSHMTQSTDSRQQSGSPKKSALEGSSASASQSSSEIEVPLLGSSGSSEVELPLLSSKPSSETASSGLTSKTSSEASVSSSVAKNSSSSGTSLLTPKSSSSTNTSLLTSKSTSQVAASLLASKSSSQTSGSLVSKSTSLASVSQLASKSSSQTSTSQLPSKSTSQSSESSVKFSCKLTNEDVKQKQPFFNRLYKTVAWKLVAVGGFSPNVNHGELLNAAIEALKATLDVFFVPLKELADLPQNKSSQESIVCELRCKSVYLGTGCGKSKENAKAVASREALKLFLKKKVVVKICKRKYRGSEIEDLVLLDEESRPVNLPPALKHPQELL
UniProt O75956: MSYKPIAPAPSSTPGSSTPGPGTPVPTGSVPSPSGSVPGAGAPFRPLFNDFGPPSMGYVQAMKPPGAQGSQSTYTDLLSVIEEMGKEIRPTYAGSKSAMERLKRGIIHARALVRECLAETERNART
UniProt Q9P2B7: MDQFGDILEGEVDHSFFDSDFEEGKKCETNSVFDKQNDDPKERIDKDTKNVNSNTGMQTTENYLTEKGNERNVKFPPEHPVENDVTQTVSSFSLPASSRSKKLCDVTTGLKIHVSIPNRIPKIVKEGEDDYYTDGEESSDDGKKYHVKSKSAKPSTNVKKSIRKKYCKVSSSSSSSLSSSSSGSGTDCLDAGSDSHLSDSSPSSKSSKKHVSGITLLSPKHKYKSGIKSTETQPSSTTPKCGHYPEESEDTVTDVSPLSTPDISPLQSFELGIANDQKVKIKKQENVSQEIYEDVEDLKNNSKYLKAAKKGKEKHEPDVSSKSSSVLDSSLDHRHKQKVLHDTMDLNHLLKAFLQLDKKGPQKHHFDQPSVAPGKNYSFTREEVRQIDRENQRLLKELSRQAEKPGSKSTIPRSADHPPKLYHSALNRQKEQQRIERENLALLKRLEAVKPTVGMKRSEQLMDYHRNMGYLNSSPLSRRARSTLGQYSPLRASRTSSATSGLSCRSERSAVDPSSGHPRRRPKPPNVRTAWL

The list shows a part of the results.

Compound in this assay: NCC(=O)Nc1ccc(-n2nc(C(F)(F)F)cc2-c2ccc3c(ccc4ccccc43)c2)cc1
The experiment in a line: log2 fold change, soluble protein after heating vs DMSO (PISA); higher = thermal stabilisation; K562 lysate, 10 uM; active = over 0.2 and 3.5 SD of the protein, either way, in both replicates (recomputed). Summed up: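 A 30 min treatment with 10 μM compound was applied to crude K562 extract at 1 mg/mL protein in PBS pH 7.4 with 1 mM MgCl2. Heating for 3 min spanned 48°C-58°C, after which aliquots were pooled, adjusted to 0.5% NP-40 at 4°C and spun at 21,000xg for 90 min. TMTpro 16plex LC-MS/MS of the supernatant, with channel sums equalised, gave values recorded as log-two fold change in thermal stability against solvent controls, from duplicates.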
CENPK (UniProt Q9BS16): the log2 fold change is inactive: 0.132.

For the target CDK19 (UniProt Q9BWU1), the log2 fold change was inactive: 0.154.

As for CENPU (UniProt Q71F23), the log2 fold change is inactive: 0.062.

On to CGGBP1 (UniProt Q9UFW8), for which the log2 fold change was inactive: 0.037.

Consider CEP290 (UniProt O15078), for which the log2 fold change is inactive: -0.085.

For CDC42 (UniProt P60953), the log2 fold change is inactive: -0.073.

CD82 (UniProt P27701): the log2 fold change is inactive: 0.169.

Consider CDK8 (UniProt P49336), for which the log2 fold change is inactive: -0.008.

For CEP120 (UniProt Q8N960), the log2 fold change was inactive: 0.261.

On to CDC27 isoform 2 (UniProt P30260), for which the log2 fold change was inactive: 0.001.

Regarding CDCA4 (UniProt Q9BXL8), the log2 fold change was inactive: 0.039.

On to CEP250 (UniProt Q9BV73), for which the log2 fold change is inactive: 0.014.

As to CEBPZ (UniProt Q03701), the log2 fold change is inactive: -0.013.

For CEP85L isoform 4 (UniProt Q5SZL2), the log2 fold change was inactive: 0.025.

With CDC37 (UniProt K7EKQ2), the log2 fold change was inactive: -0.01.

On to CEP83 (UniProt Q9Y592), for which the log2 fold change was inactive: -0.052.

As to CD99 (UniProt P14209), the log2 fold change is inactive: -0.052.

Consider CD97 (UniProt P48960), for which the log2 fold change is inactive: -0.007.

For CFAP298 (UniProt P57076), the log2 fold change was inactive: -0.014.

For CDK7 (UniProt P50613), the log2 fold change is inactive: 0.029.

Take CHAC2 (UniProt Q8WUX2): the log2 fold change is inactive: -0.158.

As for CDC23 (UniProt Q9UJX2), the log2 fold change is inactive: -0.012.

With CFAP47 (UniProt Q6ZTR5), the log2 fold change is inactive: 0.103.

CDC25B (UniProt P30305): the log2 fold change was inactive: -0.005.

Turning to CDC25C (UniProt P30307), the log2 fold change was inactive: -0.019.

CDK17 isoform 2 (UniProt Q00537): the log2 fold change was inactive: 0.01.

CD99L2 isoform 5 (UniProt Q8TCZ2): the log2 fold change is inactive: 0.232.

As to CFL2 (UniProt Q9Y281), the log2 fold change was inactive: 0.052.

As to CDC20 (UniProt Q12834), the log2 fold change is inactive: 0.067.

For CDKN2AIP (UniProt Q9NXV6), the log2 fold change was inactive: -0.005.

Consider CDK2AP2 (UniProt O75956), for which the log2 fold change is inactive: 0.011.

CFAP97 (UniProt Q9P2B7): the log2 fold change is inactive: -0.172.
